Laboratory results as given in patent US9586978B2, “Anti-viral compounds” (AbbVie Inc., priority 2009, dated 2017).
Some results were stated once for a whole list of compounds, not compound by compound.

Tests used:
[1] = test system: HCV genotype 1a replicon containing NS5A mutation Q30R; test: HCV 1a Q30R replicon assay; assay type: cell-based, Hepatitis C virus; conditions: transient transfection assays
HCV genotype 3a replicon = HCV genotype 3a replicon assay; assay type: cell-based, Hepatitis C virus; conditions: stable cell lines, in the presence of 5% FBS
Description: (§1) [drawing 14] employs a biphenyl linker between the imidazole moieties. See WO2008021927(BMS). The EC50 values of BMS-790052 against different HCV genotypes were shown by Nettles et al., “BMS-790052 is a First-in-class Potent Hepatitis C Virus (HCV) NS5A Inhibitor for Patients with Chronic HCV Infection: Results from a Proof-of-concept Study”, 59th Annual Meeting of the American Association for the Study of Liver Diseases (Oct. 31-Nov. 1, 2008, San Francisco, Calif.; www.natap.org/2008/AASLD/AASLD_06.htm). […] See also Gao et al., NATURE 465:96-100 (2010). The compounds in Table 1 use different linkers between the imidazole moieties. Table 1 depicts the EC50 values of these compounds when tested using respective replicon assays in the presence of 5% (v/v) fetal bovine serum (FBS).

[2] = test system: HCV 1a replicon containing NS5A mutation Y93C; test: HCV 1a Y93C replicon assay; assay type: cell-based, Hepatitis C virus; conditions: transient transfection assays
Description: (§2) Table 2 compares compounds containing unsubstituted benzimidazole to those containing halo-substituted benzimidazole. Anti-viral activities were assessed using wild-type replicons (e.g., 1b WT or 1a WT) as well as replicons containing specific NS5A mutations (e.g., 1b L28T, 1b Y93H, 1a L31V, 1a Y93C, 1a M28V, or 1a Q30E) in the absence of FBS.

HCV genotype 1a replicon = HCV genotype 1a replicon assay; assay type: cell-based, Hepatitis C virus; conditions: stable cell lines, in the presence of 5% FBS
Description: as §1, §2
Table 3 compares compounds with different linkers between the benzimidazole moieties. Anti-viral activities were determined using 1a and 1b replicon assays. “HP” refers to human plasma. […] As compared to the phenyl linker

[3] = test system: HCV 1a replicon containing NS5A mutation L31V; test: HCV 1a L31V replicon assay; assay type: cell-based, Hepatitis C virus; conditions: transient transfection assays
Description: as §2

[4] = test system: HCV genotype 1a replicon containing NS5A mutation Y93H; test: HCV 1a Y93H replicon assay; assay type: cell-based, Hepatitis C virus; conditions: transient transfection assays
[5] = test system: HCV 1a variant containing the NS5A mutation M28T; test: HCV 1a M28T replicon assay; assay type: cell-based, Hepatitis C virus; conditions: transient transfection assays
[6] = test system: HCV 1a replicon containing NS5A mutation Q30E; test: HCV 1a Q30E replicon assay; assay type: cell-based, Hepatitis C virus; conditions: transient transfection assays
Description: as §2

[7] = test system: HCV 1a replicon containing NS5A mutation M28V; test: HCV 1a M28V replicon assay; assay type: cell-based, Hepatitis C virus; conditions: transient transfection assays
Description: as §2

HCV genotype 6a replicon = HCV genotype 6a replicon assay; assay type: cell-based, Hepatitis C virus; conditions: stable cell lines, in the presence of 5% FBS
Description: as §1

[8] = test system: HCV 2a, 2b, 3a and 4a replicon; test: HCV 2a, 2b, 3a and 4a replicon assays in the absence of human plasma; assay type: cell-based; conditions: 3a and 4a replicons, absence of HP, versus Example 163 of the '301 application
Description: The inhibitory effects of the compounds of the invention on HCV replication can be determined by measuring activity of the luciferase reporter gene. For example, replicon-containing cells can be seeded into 96 well plates at a density of 5000 cells per well in 100 μl DMEM containing 5% FBS. The following day compounds can be diluted in dimethyl sulfoxide (DMSO) to generate a 200× stock in a series of eight half-log dilutions. The dilution series can then be further diluted 100-fold in the medium containing 5% FBS. Medium with the inhibitor is added to the overnight cell culture plates already containing 100 μl of DMEM with 5% FBS. In assays measuring inhibitory activity in the presence of human plasma, the medium from the overnight cell culture plates can be replaced with DMEM containing 40% human plasma and 5% FBS. […] Luciferin solution (100 μl, Promega) can be added to each well, and luciferase activity can be measured with a Victor II luminometer (Perkin-Elmer). The percent inhibition of HCV RNA replication can be calculated for each compound concentration and the EC50 value can be calculated using nonlinear regression curve fitting to the 4-parameter logistic equation and GraphPad Prism 4 software.

SMILES	EC50 fold less than that of Example 37 of US 2010/0317568 against the 1a Q30R variant [1]	EC50 fold less than that of Example 37 of US 2010/0317568 against genotype 3a (HCV genotype 3a replicon)	EC50 fold less than that of Example 37 of US 2010/0317568 against the 1a Y93C variant [2]	EC50 fold less than that of Example 37 of US 2010/0317568 against genotype 1a (HCV genotype 1a replicon)	EC50 fold less than that of Example 37 of US 2010/0317568 against the 1a L31V variant [3]	EC50 fold less than that of Example 37 of US 2010/0317568 against the 1a Y93H variant [4]	EC50 fold less than that of Example 37 of US 2010/0317568 against the 1a M28T variant [5]	EC50 fold less than that of Example 37 of US 2010/0317568 against the 1a Q30E variant [6]	EC50 fold less than that of Example 37 of US 2010/0317568 against the 1a M28V variant [7]	EC50 fold less than that of Example 37 of US 2010/0317568 against genotype 6a (HCV genotype 6a replicon)	EC50 values, fold less than those of Example 163 of the '301 application [8]
COC(=O)N[C@H](C(=O)N1CCC[C@H]1c1nc2cc([C@H]3CC[C@H](c4cc5nc([C@@H]6CCCN6C(=O)[C@@H](NC(=O)OC)[C@@H](C)OC)[nH]c5cc4F)N3c3cc(F)c(N4CCC(c5ccccc5)CC4)c(F)c3)c(F)cc2[nH]1)[C@@H](C)OC [Example 4.38, methyl{(2S,3R)-1-[(2S)-2-{5-[(2R,5R)-1-[3,5-difluoro-4-(4-phenylpiperidin-1-yl)phenyl]-5-(6-fluoro-2-{(2S)-1-[N-(methoxycarbonyl)-O-methyl-L-threonyl]pyrrolidin-2-yl}-1H-benzimidazol-5-yl)pyrrolidin-2-yl]-6-fluoro-1H-benzimidazol-2-yl}pyrrolidin-1-yl]-3-methoxy-1-oxobutan-2-yl}carbamate]	at least 300 fold	at least 3 fold	at least 800 fold	at least 6 fold	at least 130 fold	at least 1,500 fold	at least 7,500 fold	at least 500 fold	at least 80 fold	at least 50 fold	–
COC(=O)N[C@H](C(=O)N1CCC[C@H]1c1nc2cc([C@H]3CC[C@H](c4ccc5[nH]c([C@@H]6CCCN6C(=O)[C@@H](NC(=O)OC)C(C)C)nc5c4)N3c3cc(F)c(N4CCC(c5ccccc5)CC4)c(F)c3)ccc2[nH]1)C(C)C [Example 5.1, methyl{(2S)-1-[(2S)-2-{5-[(2R,5R)-1-[3,5-difluoro-4-(4-phenylpiperidin-1-yl)phenyl]-5-{2-[(2S)-1-{(2S)-2-[(methoxycarbonyl)amino]-3-methylbutanoyl}pyrrolidin-2-yl]-1H-benzimidazol-5-yl}pyrrolidin-2-yl]-1H-benzimidazol-2-yl}pyrrolidin-1-yl]-3-methyl-1-oxobutan-2-yl}carbamate]	at least 300 fold	at least 3 fold	at least 800 fold	at least 6 fold	at least 130 fold	at least 1,500 fold	at least 7,500 fold	at least 500 fold	at least 80 fold	at least 50 fold	–
COC(=O)N[C@H](C(=O)N1CCC[C@H]1c1nc2cc([C@H]3CC[C@H](c4cc5nc([C@@H]6CCCN6C(=O)[C@@H](NC(=O)OC)[C@@H](C)OC)[nH]c5cc4F)N3c3cc(F)c(N4CCC(c5ccc(F)cc5)CC4)c(F)c3)c(F)cc2[nH]1)[C@@H](C)OC [Example 3.52, methyl{(2S,3R)-1-[(2S)-2-{5-[(2R,5R)-1-{3,5-difluoro-4-[4-(4-fluorophenyl)piperidin-1-yl]phenyl}-5-(6-fluoro-2-{(2S)-1-[N-(methoxycarbonyl)-O-methyl-L-threonyl]pyrrolidin-2-yl}-1H-benzimidazol-5-yl)pyrrolidin-2-yl]-6-fluoro-1H-benzimidazol-2-yl}pyrrolidin-1-yl]-3-methoxy-1-oxobutan-2-yl}carbamate]	at least 300 fold	at least 3 fold	at least 800 fold	at least 6 fold	at least 130 fold	at least 1,500 fold	at least 7,500 fold	at least 500 fold	at least 80 fold	at least 50 fold	–
COC(=O)N[C@H](C(=O)N1CCC[C@H]1c1nc2ccc([C@H]3CC[C@H](c4ccc5nc([C@@H]6CCCN6C(=O)[C@@H](NC(=O)OC)C(C)C)[nH]c5c4)N3c3cc(F)c(C4CC4)c(F)c3)cc2[nH]1)C(C)C [Example 4.15, methyl{(2S)-1-[(2S)-2-{6-[(2R,5R)-1-(4-cyclopropyl-3,5-difluorophenyl)-5-{2-[(2S)-1-{(2S)-2-[(methoxycarbonyl)amino]-3-methylbutanoyl}pyrrolidin-2-yl]-1H-benzimidazol-6-yl}pyrrolidin-2-yl]-1H-benzimidazol-2-yl}pyrrolidin-yl]-3-methyl-1-oxobutan-2-yl}carbamate]	–	–	–	–	–	–	–	–	–	–	2-4 fold
COC(=O)N[C@H](C(=O)N1CCC[C@H]1c1nc2cc([C@H]3CC[C@H](c4cc5nc([C@@H]6CCCN6C(=O)[C@@H](NC(=O)OC)[C@@H](C)OC)[nH]c5cc4F)N3c3cc(F)c(N4CCN(c5c(F)cccc5F)CC4)c(F)c3)c(F)cc2[nH]1)[C@@H](C)OC [Example 3.48, methyl{(2S,3R)-1-[(2S)-2-{5-[(2R,5R)-1-{4-[4-(2,6-difluorophenyl)piperazin-1-yl]-3,5-difluorophenyl}-5-(6-fluoro-2-{(2S)-1-[N-(methoxycarbonyl)-O-methyl-L-threonyl]pyrrolidin-2-yl}-1H-benzimidazol-5-yl)pyrrolidin-2-yl]-6-fluoro-1H-benzimidazol-2-yl}pyrrolidin-1-yl]-3-methoxy-1-oxobutan-2-yl}carbamate]	at least 300 fold	at least 3 fold	at least 800 fold	at least 6 fold	at least 130 fold	at least 1,500 fold	at least 7,500 fold	at least 500 fold	at least 80 fold	at least 50 fold	–
